According to publication PMC12431657, “Discovery and mechanistic insights of dibenzoylmethane as a broad spectrum inhibitor of coronavirus” (PLOS Pathogens, 2025):
Where a name gives a salt, the structure may show the parent alone. Read-outs that look alike come from different tables or passages of the source. About 60 (2%) of roughly 3,300 compounds showed an effect of 50% or more. Some of the results follow.

Tested on: HCoV-OC43
Design: species or system RD; HTS, protection from HCoV-OC43 induced cell death, luminescent cell viability (CellCounting-Lite 2.0), inhibition rate

| SMILES | OC43 Inhibition rate (24 h, 10 µM; inhibitor) | OC43 Inhibition rate (24 h, 10 µM, inhibitor) [%] |
| --- | --- | --- |
| O=C(/C=C/c1ccc(O)c(O)c1)OC1[C@H](O)CC(OC(=O)/C=C/c2ccc(O)c(O)c2)(C(=O)O)C[C@H]1O (stereo partly shown) [1,4-Dicaffeoylquinic acid] | -0.4% | – |
| CC(C)=CC[C@@H](OC(=O)CC(C)(C)O)C1=CC(=O)c2c(O)ccc(O)c2C1=O [β-Hydroxyisovalerylshikonin] | 2.6% | – |
| OCC(Cl)(Cl)Cl [2,2,2-Trichloroethanol] | 4.2% | – |
| CC(C(=O)O)C(=O)O [Methylmalonic acid] | 9.7 | – |
| CN1CC[C@]23C(=O)C[C@H]4C(=CCO[C@H]5CC(=O)N(c6c(O)cccc62)[C@H]3[C@H]54)C1 [Vomicine] | 1.7% | – |
| C[C@H]1O[C@@H](O[C@H]2CC[C@@]3(C)[C@H](CC[C@@H]4[C@@H]3C[C@@H](O)[C@]3(C)[C@@H](C5=CC(=O)OC5)CC[C@]43O)C2)C[C@H](O)[C@@H]1O[C@H]1C[C@H](O)[C@H](O[C@H]2C[C@H](O)[C@H](O[C@@H]3O[C@H](CO)[C@@H](O)[C@H](O)[C@H]3O)[C@@H](C)O2)[C@@H](C)O1 [Deslanoside] | 30.6 | – |
| C=CCSC [Allyl methyl sulfide] | 0.4 | – |
| CC1(C)O[C@@H]1COc1c2occc2cc2ccc(=O)oc12 [Heraclenin] | -0.5% | – |
| C/C=C(\C)C(=O)O[C@@H]1C[C@H](O)[C@]23CO[C@H](C(=O)OC)[C@H]2[C@](C)([C@]24O[C@@]2(C)[C@H]2C[C@@H]4O[C@@H]4OC=C[C@@]42O)[C@H](O)[C@@H]2OC[C@@]1(C(=O)OC)[C@H]23 [Azadirachtin B] | 0.3% | – |
| Cc1c([C@H](C)[C@@H]2NC[C@@H](C)C[C@H]2O)ccc2c1C[C@H]1[C@H]2CC=C2C[C@@H](O[C@@H]3O[C@H](CO)[C@@H](O)[C@H](O)[C@H]3O)CC[C@@]21C [Veratrosine] | 5.4% | – |
| C[C@]12CC[C@@H](O)C[C@H]1CC[C@@H]1[C@@H]2CC[C@]2(C)C(=O)CC[C@@H]12 [Etiocholanolone] | -1% | – |
| c1ccc2c(c1)ccc1c3ccccc3ccc21 [Chrysene] | -0.5 | – |
| O=C(O)c1ccc(=O)[nH]c1 [6-Hydroxynicotinic acid] | -1% | – |
| COC1=C[C@]23CCCN2CCc2cc4c(cc2[C@@H]3[C@@H]1O)OCO4 [Cephalotaxine] | 3.2% | – |
| CCc1ccc(O)c2cc3c(nc12)-c1cc2c(c(=O)n1C3)COC(=O)[C@]2(O)CC [12-Ethyl-9-hydroxycamptothecin] | -8.1% | – |
| C[C@@H]1C(=O)O[C@H]2[C@H](O)[C@@]34O[C@@H]5OC(=O)[C@H](O)[C@@]56[C@H](C(C)(C)C)[C@H](O)C(OC3=O)[C@]64[C@@]12O (stereo partly shown) [Ginkgolide C] | 0.9% | – |
| COc1cc2occc2c2oc(=O)ccc12 [Isobergapten] | 1% | – |
| CCCCCCCCC(=O)NCc1ccc(O)c(OC)c1 [Nonivamide] | 0 | – |
| C=Cc1cc(O)cc2ccc3c(C)c(O)ccc3c12 [Dehydroeffusol] | 20% | – |

Part of the list above, with bars between the fields.
SMILES | OC43 Inhibition rate (24 h, 10 µM; inhibitor) | OC43 Inhibition rate (24 h, 10 µM, inhibitor) [%]
C[C@]12CC[C@@H](O)C[C@H]1CC[C@@H]1[C@@H]2CC[C@]2(C)C(=O)CC[C@@H]12 [Etiocholanolone] | -1% | –
c1ccc2c(c1)ccc1c3ccccc3ccc21 [Chrysene] | -0.5 | –

Later entries

| SMILES | OC43 Inhibition rate (24 h, 10 µM; inhibitor) | OC43 Inhibition rate (24 h, 10 µM, inhibitor) [%] |
| --- | --- | --- |
| CC(=O)/C=C/c1ccccc1 [Benzylideneacetone] | – | -0.8 |
| COC[C@]12CN(C)C3[C@@H]4[C@H](OC)[C@H]1[C@@]3([C@@H](OC)C[C@H]2O)[C@@H]1C[C@@]2(O)[C@H](OC(=O)c3ccccc3)[C@@H]1[C@]4(O)[C@@H](O)[C@@H]2OC [Benzoylmesaconine] | 1.5% | – |
| COC1=CC(=O)O[C@@H](/C=C/c2ccccc2)C1 [Kavain] | – | 0 |
| CC(C)[C@@H]1[C@H]2OC(=O)[C@@H]1[C@@H]1CC[C@@H]3CN(C)[C@H]2[C@@]31C [Dendrobine] | -0.3% | – |
| CC(C)(C)[C@]1(O)C[C@@H]2OC(=O)C[C@@]23C(=O)O[C@@H]2OC(=O)[C@H](O)[C@]213 [Bilobalide] | 0% | – |
| C[C@]12CC[C@H](O)C[C@H]1CC[C@@H]1[C@@H]2C(=O)[C@H](O)[C@]2(C)[C@@H](c3ccc(=O)oc3)CC[C@]12O [Pseudobufarenogin] | 25.2% | – |
| NC(=O)[C@H](Cc1ccccc1)NC(=O)[C@H](Cc1c[nH]c2ccccc12)NC(=O)[C@@H]1CCCN1C(=O)[C@@H](N)Cc1ccc(O)cc1 [Endomorphin 1] | -4.1% | – |
| COc1cc(OC)c(OC)cc1C=O [Asaraldehyde] | -0.4% | – |
| COC1=CC(=O)O[C@@H](/C=C/c2ccccc2)C1 [(+)-Kavain] | – | -0.4 |
| COc1c(O)cc2c3c1-c1ccccc1C[C@H]3N(C)CC2 [O-Nornuciferine] | 2.7% | – |
| CC1=CC(=O)[C@@H](O)[C@]2(C)[C@H]3[C@@H](O)[C@H](O)[C@]4(CO)OC[C@@]35[C@@H](C[C@@H]12)OC(=O)[C@H](O)[C@]54O [Yadanziolide A] | 17.1% | – |
| C[C@]12CC[C@H](O)C[C@H]1CC[C@@H]1[C@@H]2[C@H](O)C(=O)[C@]2(C)[C@@H](c3ccc(=O)oc3)CC[C@]12O [Arenobufagin] | 0.4% | – |
| COC[C@]12CN(C)[C@@H]3[C@@H]4[C@H](OC)[C@H]1[C@@]3([C@@H](OC)C[C@H]2O)[C@@H]1C[C@@]2(O)[C@H](OC(=O)c3ccccc3)[C@@H]1[C@]4(OC(C)=O)[C@@H](O)[C@@H]2OC [Mesaconitine] | -0.3% | – |
| C[C@H]1CC[C@@H]2N(C1)C[C@H]1[C@@H]3C[C@H]4[C@@H](C[C@H](O)[C@H]5C[C@@H](O)CC[C@@]54C)[C@@H]3CC[C@@H]1[C@]2(C)O [Peimine] | -0.4% | – |
| CCCCC/C=C/C/C=C/CCCCCCCC(=O)O[C@H](COC(=O)CCCCCCCCCCCCCCC)COP(=O)([O-])OCC[N+](C)(C)C [Lecithin] | -0.3 | – |
| COc1cc2c(cc1O)C[C@@H]1NCCc3cc(O)c(OC)c-2c31 [Laurolitsine (hydrochloride)] | -0.3% | – |
| C[C@H](O)c1ccccc1 [(S)-(-)-Phenylethanol] | 0.2 | – |
| NC(=O)Cc1ccccc1 [2-Phenylacetamide] | -1.1% | – |
